From PMC8187923
These are yes or no findings as the source states them, for the method shown. In cells and extracts the contact can be indirect. Some results given as binding are weak or reduced against the parent protein; the word gives no strength. For some assays here: Tags and fused reporters may be left off the sequences shown.

Protein sequences, listed by entry. Tags and fused reporters are not part of them.
UniProt P19474: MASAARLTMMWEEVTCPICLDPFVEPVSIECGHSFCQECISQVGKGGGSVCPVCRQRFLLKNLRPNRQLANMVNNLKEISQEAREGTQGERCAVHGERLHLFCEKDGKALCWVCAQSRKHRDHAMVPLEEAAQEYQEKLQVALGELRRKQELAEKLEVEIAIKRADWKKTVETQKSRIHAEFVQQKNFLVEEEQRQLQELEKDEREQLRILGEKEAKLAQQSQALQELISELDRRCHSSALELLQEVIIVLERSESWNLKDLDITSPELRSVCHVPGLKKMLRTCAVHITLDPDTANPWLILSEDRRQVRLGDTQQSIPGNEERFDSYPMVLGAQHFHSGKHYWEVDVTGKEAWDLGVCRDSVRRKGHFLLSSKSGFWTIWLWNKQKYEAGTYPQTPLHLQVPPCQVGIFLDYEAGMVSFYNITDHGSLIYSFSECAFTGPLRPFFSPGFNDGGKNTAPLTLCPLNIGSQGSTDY

B1: Endogenous IκB-α of HEK293T cells, P25963 1-317 (protein)
chain: MFQAAERPQEWAMEGPRDGLKKERLLDDRHDSGLDSMKDEEYEQMVKELQEIRLEPQEVPRGSEPWKQQLTEDGDSFLHLAIIHEEKALTMEVIRQVKGDLAFLNFQNNLQQTPLHLAVITNQPEIAEALLGAGCDPELRDFRGNTPLHLACEQGCLASVGVLTQSCTTPHLHSILKATNYNGHTCLHLASIHGYLGIVELLVSLGADVNAQEPCNGRTALHLAVDLQNPDLVSLLLKCGADVNRVTYQGYSPYQLTWGRPSTRIQQQLGQLTLENLQMLPESEDEESYDTESEFTEFTEDELPYDDCVFGGQRLTL
B2: Toxoplasma gondii ROP18 of the type I RH strain, FLAG-tagged (pcDNA3.1-ROP18I-FLAG) (enzyme, UniProt Q2PAY2 1-554)
chain: MFSVQRPPLTRTVVRMGLATLLPKTACLAGLNVALVFLLFQVQDGTGITLGPSKLDSKPTSLDSQQHVADKRWLATVGHYKHLAGATESTRDVSLLEERAQHRVNAQETNQRRTIFQRLLNLLRRRERDGEVSGSAADSSSRPRLSVRQRLAQLWRRAKSLFKRGIRRYFPQGRNRQRSLRAQRRRSELVFEKADSGCVIGKRILAHMQEQIGQPQALENSERLDRILTVAAWPPDVPKRFVSVTTGETRTLVRGAPLGSGGFATVYEATDVETNEELAVKVFMSEKEPTDETMLDLQRESSCYRNFSLAKTAKDAQESCRFMVPSDVVMLEGQPASTEVVIGLTTRWVPNYFLLMMRAEADMSKVISWVFGDASVNKSEFGLVVRMYLSSQAIKLVANVQAQGIVHTDIKPANFLLLKDGRLFLGDFGTYRINNSVGRAIGTPGYEPPERPFQATGITYTFPTDAWQLGITLYCIWCKERPTPADGIWDYLHFADCPSTPELVQDLIRSLLNRDPQKRMLPLQALETAAFKEMDSVVKGAAQNFEQQEHLHTE

Columns and labels:
[1] = target: Endogenous p65 of HEK293T cells (human (endogenous in HEK293T)), Q04206; assay: co-IP; conditions: remark: other sources report otherwise
[2] = target: Human TRIM21, HA-tagged (pcDNA3.1-TRIM21-HA) (human) (UniProt P19474); assay: co-IP

Binder	binding [1]	binding [2]
B1	binds	–
B2	–	binds
